Measurements as given in publication PMC5490264 (Nature Communications, 2017).
No constants are given. Whether binding was seen depends on the method and setting. Binding seen in cells or lysates may run through a third protein. Some results given as binding are weak or reduced against the parent protein; the word gives no strength.

Chains of the proteins cited; added tags and fusions are not shown. Lines headed by an entry give the natural chain unless they say otherwise; changes in a name come on top.
UniProt Q79NI3: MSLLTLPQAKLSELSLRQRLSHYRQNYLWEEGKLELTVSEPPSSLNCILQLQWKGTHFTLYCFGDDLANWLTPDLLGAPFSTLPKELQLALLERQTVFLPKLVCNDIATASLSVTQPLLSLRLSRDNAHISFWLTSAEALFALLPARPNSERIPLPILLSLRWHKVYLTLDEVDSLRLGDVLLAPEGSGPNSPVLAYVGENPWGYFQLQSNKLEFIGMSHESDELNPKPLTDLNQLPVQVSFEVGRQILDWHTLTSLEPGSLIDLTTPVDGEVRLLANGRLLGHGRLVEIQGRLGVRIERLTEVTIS

Target: Halo-YscQ (Yersinia enterocolitica) (UniProt Q79NI3)
Assay: pull-down; Halo-YscQ bound to Magne HaloTag beads from Y. enterocolitica lysate (strains with and without YscN); eluate probed by immunoblot with a polyclonal anti-YscQ antibody

## YscQC (from UniProt Q79NI3 218-307) (domain or fragment)
  binding: binds
